From article PMC8955377, “Greener Synthesis of Antiproliferative Furoxans via Multicomponent Reactions” (Molecules, 2022)

Experiments:
[1] = NO release in physiological solution, Griess assay; settings: 100 μM, pH 7.4 PBS/MeOH 50/50, 37 °C; for % NO2– (mol/mol) with L-Cys, 1h incubation / % NO2– (mol/mol) with L-Cys, 3 h incubation: 0.5 mM L-cysteine
LNCaP cells = assay: Antiproliferative activity, sulforhodamine B assay, LNCaP prostate cancer cells; type: cell-based, human; settings: GI50 (HaCaT)/GI50 (LNCaP)
Experimental: (§1) In vitro antiproliferative activity of the compounds was determined in cells derived from bladder cancer (T24) and prostate cancer (LNCaP). The cells were incubated in the presence of the compounds for 48 h. The antiproliferative activity was determined using the sulforhodamine B assay. The results were expressed as GI50, which is the drug concentration resulting in a 50% reduction of cellular net growth when compared with the values of untreated control cells. The standard anticancer drug cisplatin was used as a positive control, and furoxan 3 and 11a were also included as ⋅NO donor reference compounds. The results are summarized in Table 2 for the Ugi product 7a, Ugi-Fx (8a) and 8b–g Ugi-furoxan derivatives, and GBB product 10 and 12a–e GBB-furoxan derivatives.
(§2) The T24 cells were grown in McCoy’s 5A (Biological Industries) supplemented with 10% FBS (Capricorn Scientific). The cells were passaged twice per week, and the culture medium was changed with the same frequency. The LNCaP cells were maintained in RPMI media (Biological Industries) supplemented with 10% FBS (Capricorn Scientific) and 10% of its own conditioned medium (complete media). The cells were passaged once per week, and the medium was changed with the same frequency. The HaCaT cells (immortalized human keratinocytes) were cultured in Dulbecco’s modified Eagle medium (Biological Industries) supplemented with 10% FBS (Capricorn Scientific). The cells were passaged twice per week, and the medium was changed with the same frequency. The cell cultures were maintained under a humidified 5% CO2 atmosphere at 37 °C.
(§3) For viability assays, cells were treated with a 0.25% Trypsin–0.05% EDTA solution and plated in 96-well plates in complete medium the day before the experiment. The cells were seeded in a 96-well plate at densities of 8 × 10^3 cells per well for T24 cells, 12.5 × 10^3 cells per well for LNCaP cells, and 10 × 10^3 cells per well for HaCaT cells. The cultures were allowed to attach for 24 h in a humidified 5% CO2 atmosphere at 37 °C. Then, the cells were treated with increasing concentrations of the compounds (0.4–100.0 µM) prepared in complete medium using stock solutions in DMSO and were kept for 48 h in a CO2 incubator. Wells with only media or 0.5% DMSO were added as controls. The antiproliferative activity of the compounds was assayed using the SRB method in at least three independent experiments.

T24 cells = assay: Antiproliferative activity, sulforhodamine B assay, T24 bladder cancer cells; type: cell-based, human; settings: GI50 (HaCaT)/GI50 (T24)
Experimental: as §1, §2, §3

Structure (SMILES)	% NO2– (mol/mol) with L-Cys, 1h incubation ([1]; 1 h)	% NO2– (mol/mol) with L-Cys, 3 h incubation [1]	SI LNCaP (LNCaP cells)	SI T24 (T24 cells)	% NO2– (mol/mol) without L-Cys, 1h incubation ([1]; 1 h, no L-cysteine)
CC(=O)N[C@@H](C(=O)O)C(C)(C)SN=O (racemic) [SNAP, reference compound]	18.18 (± 1.30) % (mol/mol)	20.11 (± 2.21) % (mol/mol)	–	–	–
Cc1ccc(N(C(=O)c2cccc(O)c2)C(C(=O)NC(C)(C)C)c2ccccc2)cc1 (stereo not shown) [7a, N-(1-(tert-butylaminocarbonyl)-1-phenylmethyl)-N-(4-methylphenyl)-3-hydroxyphenyl carboxamide]	0.71 (± 0.39) % (mol/mol)	2.56 (± 1.77) % (mol/mol)	–	–	–
Cc1ccc(N(C(=O)c2ccccc2Oc2no[n+]([O-])c2S(=O)(=O)c2ccccc2)C(C(=O)NC(C)(C)C)c2ccccc2)cc1 (stereo not shown) [8b, N-[1-(tert-butylaminocarbonyl)-1-phenylmethyl]-N-(4-methylphenyl)-2-[3-(phenylsulfonyl)-[1,2,5]oxadiazol-4-yl N2-oxide]oxyphenylcarboxamide]	37.07 (±1.59) % (mol/mol)	44.23 (± 2.81) % (mol/mol)	0.3	2.1	–
Cc1ccc(N(C(=O)c2ccc(Oc3no[n+]([O-])c3S(=O)(=O)c3ccccc3)cc2)C(C(=O)NC(C)(C)C)c2ccccc2)cc1 (stereo not shown) [8c, N-[1-(tert-butylaminocarbonyl)-1-phenylmethyl]-N-(4-methylphenyl)-4-[3-(phenylsulfonyl)-[1,2,5]oxadiazol-4-yl N2-oxide]oxyphenylcarboxamide]	33.40 (±2.32) % (mol/mol)	36.79 (± 3.26) % (mol/mol)	0.2	2.1	–
Cc1ccc(N(CC(=O)NC(C)(C)C)C(=O)c2cccc(Oc3no[n+]([O-])c3S(=O)(=O)c3ccccc3)c2)cc1 [8d, N-(1-(tert-butylaminocarbonyl)methyl)-N-(4-methylphenyl)-3-[3-(phenylsulfonyl)-[1,2,5]oxadiazol-4-yl N2-oxide]oxy phenylcarboxamide]	27.89 (±1.84) % (mol/mol)	39.93 (± 2.31) % (mol/mol)	0.5	4.8	–
CCCCN(C(=O)c1cccc(Oc2no[n+]([O-])c2S(=O)(=O)c2ccccc2)c1)C(C(=O)NC(C)(C)C)c1ccccc1 (stereo not shown) [8e, N-(1-(tert-butylaminocarbonyl)-1-phenylmethyl)-N-(butyl)-3-[3-(phenylsulfonyl)-[1,2,5]oxadiazol-4-yl N2-oxide]oxyphenylcarboxamide]	34.62 (±1.86) % (mol/mol)	38.43 (± 1.57) % (mol/mol)	0.5	–	–
CCCCN(CC(=O)NC(C)(C)C)C(=O)c1cccc(Oc2no[n+]([O-])c2S(=O)(=O)c2ccccc2)c1 [8f, N-(1-(tert-butylaminocarbonyl)methyl)-N-(butyl)-3-[3-(phenylsulfonyl)-[1,2,5]oxadiazol-4-yl N2-oxide]oxyphenylcarboxamide]	32.65 (±1.00) % (mol/mol)	39.79 (± 2.68) % (mol/mol)	0.4	–	–
Cc1ccc(N(C(=O)c2ccccc2)C(C(=O)NC(C)(C)C)c2cccc(Oc3no[n+]([O-])c3S(=O)(=O)c3ccccc3)c2)cc1 (stereo not shown) [8g, N-(1-(tert-butylaminocarbonyl)-1-3-[3-(phenylsulfonyl)-[1,2,5]oxadiazol-4-yl N2-oxide]oxyphenylmethyl)-N-(4-methylphenyl)-phenylcarboxamide]	35.92 (±1.45) % (mol/mol)	40.51 (± 3.08) % (mol/mol)	0.1	2.9	–
O=Cc1cccc(Oc2no[n+]([O-])c2S(=O)(=O)c2ccccc2)c1 [11a, reference compound]	19.84 (± 1.35) % (mol/mol)	20.02 (± 0.95) % (mol/mol)	0.3	1.1	–
CC(C)(C)Nc1c(-c2cccc(Oc3no[n+]([O-])c3S(=O)(=O)c3ccccc3)c2)nc2ccccn12 [12a, 4-(3-(3-(tert-butylamino)imidazo[1,2-a]pyridin-2-yl)phenoxy)-3-(phenylsulfonyl)-1,2,5-oxadiazole 2-oxide]	17.22 (±1.18) % (mol/mol)	22.025 (± 1.26) % (mol/mol)	0.3	4.2	–
CC(C)(C)Nc1c(-c2ccccc2Oc2no[n+]([O-])c2S(=O)(=O)c2ccccc2)nc2ccccn12 [12b, 4-(2-(3-(tert-butylamino)imidazo[1,2-a]pyridin-2-yl)phenoxy)-3-(phenylsulfonyl)-1,2,5-oxadiazole 2-oxide]	30.38 (±1.66) % (mol/mol)	35.97 (± 1.55) % (mol/mol)	0.4	3.7	–
CC(C)(C)Nc1c(-c2ccc(Oc3no[n+]([O-])c3S(=O)(=O)c3ccccc3)cc2)nc2ccccn12 [12c, 4-(4-(3-(tert-butylamino)imidazo[1,2-a]pyridin-2-yl)phenoxy)-3-(phenylsulfonyl)-1,2,5-oxadiazole 2-oxide]	19.02 (±1.12) % (mol/mol)	24.10 (± 2.43) % (mol/mol)	0.2	1.7	–
CC(C)(C)Nc1c(-c2cccc(Oc3no[n+]([O-])c3S(=O)(=O)c3ccccc3)c2)nc2cnccn12 [12d, 4-(3-(3-(tert-butylamino)imidazo[1,2-a]pyrazin-2-yl)phenoxy)-3-(phenylsulfonyl)-1,2,5-oxadiazole 2-oxide]	16.59 (±1.36) % (mol/mol)	19.07 (± 1.87) % (mol/mol)	1.2	3.6	–
CC(C)(C)Nc1c(-c2cccc(Oc3no[n+]([O-])c3S(=O)(=O)c3ccccc3)c2)nc2sccn12 [12e, 4-(3-(5-(tert-butylamino)imidazo[2,1-b]thiazol-6-yl)phenoxy)-3-(phenylsulfonyl)-1,2,5-oxadiazole 2-oxide]	13.50 (±1.14) % (mol/mol)	16.31 (± 1.19) % (mol/mol)	–	10.8	–
N.N.[Cl][Pt][Cl] [Cisplatin, cisplatin, reference compound]	–	–	0.1	0.8	–
Cc1ccc(N(C(=O)c2cccc(Oc3no[n+]([O-])c3S(=O)(=O)c3ccccc3)c2)C(C(=O)NC(C)(C)C)c2ccccc2)cc1 (stereo not shown) [Ugi-Fx (8a), N-[1-(tert-butylaminocarbonyl)-1-phenylmethyl]-N-(4-methylphenyl)-3-[3-(phenylsulfonyl)-[1,2,5]oxadiazol-4-yl N2-oxide]oxyphenylcarboxamide]	38.45 (±1.14) % (mol/mol)	43.88 (± 1.96) % (mol/mol)	0.5	14.5	–
O=S(=O)(c1ccccc1)c1no[n+]([O-])c1S(=O)(=O)c1ccccc1 [compound 2, 3,4-bis(phenylsulfonyl)furoxan, reference compound]	37.71 (± 1.16) % (mol/mol)	39.93 (± 2.19) % (mol/mol)	–	–	0.63 (± 0.80) % (mol/mol)
O=C(O)c1cccc(Oc2no[n+]([O-])c2S(=O)(=O)c2ccccc2)c1 [compound 3, reference compound]	31.81 (± 1.21) % (mol/mol)	31.83 (± 1.15) % (mol/mol)	0.4	1.7	–
CC(C)(C)Nc1c(-c2cccc(O)c2)nc2ccccn12 [compound 10, N-tert-Butyl-2-(3-hydroxyphenyl)imidazo[1,2-a]pyridin-3-amine]	0.83 (± 0.56) % (mol/mol)	2.76 (± 1.45) % (mol/mol)	–	–	–
